This assay has as its target T1, GDF15-mFC蛋白(GDF15:Genbank登记号NM_004864.3;mFC:Genbank登记号AAH31470.1) (human; mouse) (UniProt Q99988).
T1 sequence (looked up): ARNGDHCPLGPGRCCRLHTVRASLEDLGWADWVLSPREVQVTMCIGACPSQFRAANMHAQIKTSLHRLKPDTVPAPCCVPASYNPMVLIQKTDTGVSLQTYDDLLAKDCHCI
The assay can be described thus: competitive ELISA: blocks GDF15-mFc binding to coated GFRAL-HIS.

No constants are given. Whether binding was seen depends on the method and setting. Some binding calls cover weakened binding; strength is not graded here.

B1: 53E5(hz) (antibody, human IgG1, kappa, V domains shown)
VH: QVQLQESGPGLVKPSETLSLTCTFSGFSLSTSGMGVGWIRQPPGKGLEWLAHILWDDVKRYNPALKSRLTISKDSSKSQISLKLSSVTAADTAVYYCVQMAWDWFAYWGQGTTVTVSS
VL: DIQMTQSPSSLSASVGDRVTITCKASQNVDTNVAWYQQKPGQSPKALIYSASYRSSGVPSRFSGSGSGTDFTLTISSLQPEDFATYYCQQYHSYPTFGQGTRLEIKR
B1: the binding result was “binds”.

Source of the values: patent publication CN116535503A.
